SMILES strings stand for the structures. In all, about 1,000 compounds were measured (“thermal shift dTm”: median about 0.19, highest 2% from about 1.7 on). The list shows a part of the results. Activity calls are given as the source filed them.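 The calls were made as follows: active = mean rise in melting temperature of at least 1 degC over same-plate control wells; inactive = below that, where a call was filed.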

Protein sequences, listed by entry. Tags and fused reporters are not part of them. Lines headed by an entry give the natural chain unless they say otherwise; changes in a name come on top.
UniProt O00391: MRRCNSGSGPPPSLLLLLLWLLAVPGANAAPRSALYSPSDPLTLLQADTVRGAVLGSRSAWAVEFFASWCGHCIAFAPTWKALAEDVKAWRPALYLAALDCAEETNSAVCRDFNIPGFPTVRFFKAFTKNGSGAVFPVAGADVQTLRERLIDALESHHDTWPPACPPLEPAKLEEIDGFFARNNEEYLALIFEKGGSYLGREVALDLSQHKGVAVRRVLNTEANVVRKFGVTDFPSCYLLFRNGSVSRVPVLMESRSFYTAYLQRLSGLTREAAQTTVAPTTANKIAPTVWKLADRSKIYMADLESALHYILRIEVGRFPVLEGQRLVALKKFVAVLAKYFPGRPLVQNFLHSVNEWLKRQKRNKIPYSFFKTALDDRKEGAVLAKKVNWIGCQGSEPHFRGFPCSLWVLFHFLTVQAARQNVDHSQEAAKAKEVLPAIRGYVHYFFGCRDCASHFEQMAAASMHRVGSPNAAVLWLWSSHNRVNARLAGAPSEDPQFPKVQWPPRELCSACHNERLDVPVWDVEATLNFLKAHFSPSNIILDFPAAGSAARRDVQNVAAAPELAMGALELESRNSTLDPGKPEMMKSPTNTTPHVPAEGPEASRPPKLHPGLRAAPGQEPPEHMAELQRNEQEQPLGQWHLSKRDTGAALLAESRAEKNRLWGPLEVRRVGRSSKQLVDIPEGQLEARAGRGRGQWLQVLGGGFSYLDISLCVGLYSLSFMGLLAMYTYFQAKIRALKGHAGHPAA

This assay has as its target Sulfhydryl oxidase 1 (Homo sapiens) (UniProt O00391). Description: ligand-induced melting shift of human QSOX1 – biophysical, protein thermal shift, single concentration, QSOX1 inhibitor project, confirmation (AID 1347422).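 Also: dTm is compound Tm minus mean Tm of DMSO-only wells on that plate.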 As to conditions: recombinant hQSOX1 thermal shift, Sypro Orange, at 25 µM, stronger effect = higher value.
For the compound `COc1ccc(NC(=O)c2ccoc2)cc1Cl`, the thermal shift dTm turned out to be 0.23 °C.

Turning to `Cc1ccccc1Cn1cc(NC(=O)C2CC(c3ccc(Cl)cc3)=NO2)cn1` (stereo not drawn), the thermal shift dTm amounted to 0.35 °C.

With `Cc1ccc(C(=O)Nc2ccc(S(=O)(=O)N3CCc4ccccc43)cc2)o1`, the thermal shift dTm was active: 1.08 °C.

Take `COc1cc2c(cc1NC(=O)C1CC1)oc1ccccc12`: the thermal shift dTm turned out to be 0.04 °C.

For the compound `N#Cc1c(-c2ccco2)nc(SCc2ccc(F)cc2)[nH]c1=O`, the thermal shift dTm was active: 1.21 °C.

Regarding `Fc1cccc(NC(=S)Nc2ccc(Oc3ccccc3)cc2)c1`, the thermal shift dTm amounted to 0.73 °C.

`CCC(=O)Nc1cccc(NC(=O)/C=C/c2ccc(C(C)C)cc2)c1`: the thermal shift dTm was inactive: -0.03 °C.

With `CC(Cc1cccnc1)Nc1nncc(-c2cccc(F)c2)n1` (stereo not drawn), the thermal shift dTm was inactive: 0 °C.

For the compound `O=C(Nc1cccc(-c2ccco2)c1)C1CCN(C(=O)CCc2ccco2)CC1`, the thermal shift dTm is active: 1.03 °C.

For the compound `CCc1ccc(NC(=O)Nc2ccncc2)cc1`, the thermal shift dTm is active: 1.68 °C.

For `CC(=O)Cc1nsc(NC(=O)c2ccc(-c3ccc(Cl)c(Cl)c3)o2)n1`, the thermal shift dTm stood at 0.15 °C.

On to `O=C(Nc1ccc(Cl)cc1)c1cccc(N2C(=O)c3cccnc3C2=O)c1`, for which the thermal shift dTm worked out at 0.29 °C.

In the case of `Cc1ccc2cccc(OCCCOc3ccc(Br)cc3Cl)c2n1`, the thermal shift dTm was 0.12 °C.

`COc1cc(/C=C/c2ccc3ccccc3n2)cc(Cl)c1OC(C)=O`: the thermal shift dTm amounted to 0.25 °C.

With `CC(C)(C)c1ccc(OCC(=O)Nc2ccc(Nc3ccccc3)cc2)cc1`, the thermal shift dTm was inactive: -0.13 °C.

On to `C=CCSC1=N/C(=C\c2ccc(-c3ccc(Cl)cc3)o2)C(=O)S1`, for which the thermal shift dTm turned out to be 0.91 °C.

As to `COc1cc(Cl)c(S(=O)(=O)Nc2ccc3cn[nH]c3c2)cc1Cl`, the thermal shift dTm is 0.42 °C.

Turning to `CCc1ccc(OCCNC(=O)c2cccc(I)c2)cc1`, the thermal shift dTm came to 0.17 °C.

`CC(C)CC(=O)Nc1ccc(C(=O)Nc2cccc(O)c2)cc1`: the thermal shift dTm is 0.51 °C.

Turning to `O=C(NCCc1ccccc1)c1ccc(NC(=O)C2CC2)cc1`, the thermal shift dTm worked out at 0.04 °C.

Turning to `Cc1ccc(NC(=O)Nc2ccc3snnc3c2)cc1`, the thermal shift dTm is inactive: -0.45 °C.

Turning to `CCCNC(=O)c1cccc(NC(=O)Nc2ccccc2)c1`, the thermal shift dTm is inactive: -0.19 °C.

As for `CC(C)Oc1cccc(NC(=O)Nc2ccccc2)c1`, the thermal shift dTm is inactive: -0.74 °C.

For the compound `COc1cc(OC)c(NC(=O)CSc2nc(-c3ccccc3)cc(=O)[nH]2)cc1Cl`, the thermal shift dTm came to 0.06 °C.

In the case of `Cc1cc(=O)oc2cc(NC(=S)NCCC(c3ccccc3)c3ccccc3)ccc12`, the thermal shift dTm came out at 0.16 °C.

As for `Cc1cc(NS(=O)(=O)c2ccc(NC(=O)c3oc4ccccc4c3C)cc2)no1`, the thermal shift dTm was determined as 0.38 °C.

For the compound `O=C(NCCC1=CCCCC1)c1cc(-c2ccccc2)nc2ccccc12`, the thermal shift dTm turned out to be 0.72 °C.

On to `COc1cccc(OCCOc2ccc(C(C)(C)C)cc2)c1`, for which the thermal shift dTm amounted to 0.11 °C.

For `O=S(=O)(NCCSC1CCCCC1)c1ccc(Cl)cc1`, the thermal shift dTm was 0.11 °C.

Consider `O=C(/C=C/c1ccco1)Nc1ccc(Br)cc1Cl`, for which the thermal shift dTm was found to be 0.54 °C.

With `CCc1ccc2c(c1)C(OC(C)=O)C(C)(C)C(c1cccc(Br)c1)N2` (stereo not drawn), the thermal shift dTm was 0.44 °C.

Take `COc1ccc(CCNC(=O)Nc2ccccc2)cc1`: the thermal shift dTm was 0.85 °C.

As to `Cc1cc(C(=O)Nc2ccc(S(=O)(=O)N3CCCC3)cc2)c(C)o1`, the thermal shift dTm was inactive: 0 °C.

On to `O=c1nc2n(c3cc(Cl)ccc13)CC(O)=C2c1ccccc1`, for which the thermal shift dTm was active: 1.08 °C.

Consider `Cc1ccc(-c2nc(NC(=O)c3ccoc3C)sc2C)c(C)c1`, for which the thermal shift dTm was determined as 0.19 °C.

As to `COc1ccc(CNS(=O)(=O)c2ccc(Cl)c(OC)c2)cc1`, the thermal shift dTm amounted to 0.34 °C.

On to `CN(C(=O)Nc1ccc(F)cc1)c1ccccc1`, for which the thermal shift dTm was inactive: -1.43 °C.

For the compound `CC(=O)C1=C(C)NC(SCC=C(C)C)=C(C#N)C1c1cccs1` (stereo not drawn), the thermal shift dTm worked out at 0.2 °C.

As for `COc1ccc(-c2cc3ccc(OCc4ccccc4Br)cc3oc2=O)cc1OC`, the thermal shift dTm turned out to be 0.67 °C.

Regarding `CCSC1=N/C(=C\c2ccc(-c3cccc(Cl)c3)o2)C(=O)S1`, the thermal shift dTm worked out at 0.25 °C.

`Fc1ccc(-c2nc(-c3cccs3)c(-c3cccs3)[nH]2)cc1`: the thermal shift dTm is active: 3.34 °C.

`CC(C)c1ccc(/C=C/C(=O)Nc2ccc(C(N)=O)cc2)cc1`: the thermal shift dTm is 0.01 °C.

`O=C(Nc1cccc(NC(=O)c2ccco2)c1)c1cccc(F)c1`: the thermal shift dTm is active: 1.39 °C.

Turning to `CC(C)N(Cc1nc(-c2ccc(Cl)cc2)no1)S(=O)(=O)c1ccc(F)cc1`, the thermal shift dTm came to 0.02 °C.

As for `Oc1cccc(Nc2nc(-c3ccc(Cl)cc3)cs2)c1`, the thermal shift dTm came out at 0.01 °C.

On to `COc1ccc2[nH]cc(CCNC(=O)c3cccc(Cl)c3)c2c1`, for which the thermal shift dTm was active: 1.74 °C.

In the case of `CC1CCN(c2cc(N)c(Cl)cc2[N+](=O)[O-])CC1`, the thermal shift dTm was 0.62 °C.

Consider `CCN(CC)c1ccc2cc(-c3nc4ccccc4o3)c(=O)oc2c1`, for which the thermal shift dTm was determined as 0.15 °C.

With `Cc1occc1C(=O)Nc1ccc(-c2nc3ccccc3c(=O)o2)cc1`, the thermal shift dTm was active: 1.3 °C.

Take `COc1ccccc1NC1=NC(c2ccc(F)cc2F)=[C+]S1`: the thermal shift dTm is 0.1 °C.

For `COc1ccccc1C(=O)NCCc1c[nH]c2ccc(F)cc12`, the thermal shift dTm was inactive: -10.7 °C.

`O=C(Nc1ccc(O)cc1)c1ccc(NC(=O)C2CCCO2)cc1` (stereo not drawn): the thermal shift dTm is 0.65 °C.

On to `O=C(Nc1n[nH]c(-c2ccccc2)n1)N1CCC2(C=Cc3ccccc32)CC1`, for which the thermal shift dTm came out at 0.09 °C.

Source of the values: PubChem BioAssay AID1347422 (Sanford-Burnham Center for Chemical Genomics, 2020).
